Assays:
[1] = test system: β-Galactosidase from Bacillus circulans; assay: Synthesis of N-acetyl lactosamine by β-galactosidase (transgalactosylation) with ionic liquid; format: biochemical
[2] = test system: β-Galactosidase from Bacillus circulans; assay: Synthesis of lactose by reverse hydrolysis in water/ionic liquid mixture; format: biochemical; conditions: 35° C., 24 h
[3] = fraction 12.5 vol %, Lactose/GlcNAc ratio 1:2.4
[4] = fraction 18.75 vol %, Lactose/GlcNAc ratio 1:2.4

For “Methyl-methyl-imidazolium-methyl sulphate [MMIm^+ MeSO4^−]”, the “Yield [%] after 60 min (N-acetyl lactosamine)” value (“Yield [%] after 60 min” below) [1, 3] was 40%, the “Yield [%] after 100 min (N-acetyl lactosamine)” value (“Yield [%] after 100 min” below) [1, 3] was 40% and the “Yield [%] after 60 min” value [1, 4] was 44%. The “Yield [%] after 100 min” value [1, 4] was 43%, the “Yield [%] after 60 min” value ([1]; fraction 25 vol %, Lactose/GlcNAc ratio 1:4.8) was 49% and the “Yield [%] after 100 min” value ([1]; fraction 25 vol %, Lactose/GlcNAc ratio 1:4.8, cell says (90 min)) was 55%. For the same substance, the “Yield [%] (lactose)” value ([2]; fraction of ionic liquid 10 %) was 0%, the “Yield [%] (lactose)” value ([2]; fraction of ionic liquid 20 %) was 0% and the “Yield [%] (lactose)” value ([2]; fraction of ionic liquid 30 %) was 4%. The “Yield [%] (lactose)” value ([2]; fraction of ionic liquid 40 %) was 12%, the “Yield [%] (lactose)” value ([2]; fraction of ionic liquid 50 %) was 15% and the “Yield [%] (lactose)” value ([2]; fraction of ionic liquid 60 %) was 15%. For the same substance, the “Yield [%] (lactose)” value ([2]; fraction of ionic liquid 70 %) was 16%, the “Yield [%] (lactose)” value ([2]; fraction of ionic liquid 80 %) was 16% and the “Yield [%] (lactose)” value ([2]; fraction of ionic liquid 90 %) was 16%. For the same substance, the “Yield [%] (lactose)” value ([2]; fraction of ionic liquid 100 % (water content 0.6%)) was 17%.
